{"source": "patent EP3138849B1", "about": "“SALTS OF PHOSPHORUS-CONTAINING AMINOGLYCOSIDE ANTIBIOTICS” (Mathys AG Bettlach, priority 2015, dated 2017)"}
{"tested_on": "Bacillus subtilis (ATCC 6633)", "test": "Content of active aminoglycoside in the salt by inhibition zone test (Hemmhoftest)", "format": "cell-based", "conditions": "content in the isolated salt, determined by inhibition zone test with Bacillus subtilis (ATCC 6633)"}
{"substance": "Gentamicin-Dodecylphosphat-Salz [Beispiel 2]", "Gehalt an Gentamicin-Base": "18,5 Gew.-%"}
{"substance": "Gentamicin-Dodecylphosphat-Salz [Beispiel 3]", "Gehalt an Gentamicin-Base": "19,4 Gew.-%"}
{"substance": "Gentamicin-Octadodecylphosphonsäure-Salz [Beispiel 9]", "Gehalt an Gentamicin-Base": "18,1 Gew.-%"}
{"substance": "Gentamicin-Octadecylamin-Phosphorsäure-Salz [Beispiel 11]", "Gehalt an Gentamicin-Base": "20,5 Gew.-%"}
{"substance": "Streptomycin-Dodecylphosphat-Salz [Beispiel 22]", "Gehalt an Streptomycin": "2,1 Gew.-%"}
{"substance": "Gentamicin-Dodecylphosphat-Salz [Beispiel 5]", "Gehalt an Gentamicin-Base": "22,5 Gew.-%"}
{"substance": "Streptomycin-Dodecylphosphat-Salz [Beispiel 21]", "Gehalt an Streptomycin": "5,4 Gew.-%"}
{"substance": "Gentamicin-Octadodecylphosphonsäure-Salz [Beispiel 6]", "Gehalt an Gentamicin-Base": "13,3 Gew.-%"}
{"substance": "Gentamicin-Octadodecylphosphonsäure-Salz [Beispiel 7]", "Gehalt an Gentamicin-Base": "18,2 Gew.-%"}
{"substance": "Gentamicin-Dodecylphosphat-Salz [Beispiel 4]", "Gehalt an Gentamicin-Base": "21,4 Gew.-%"}
{"substance": "Streptomycin-Dodecylphosphat-Salz [Beispiel 19]", "Gehalt an Streptomycin": "1,9 Gew.-%"}
{"substance": "Gentamicin-Octadecylamin-Phosphorsäure-Salz [Beispiel 10]", "Gehalt an Gentamicin-Base": "28,6 Gew.-%"}
{"substance": "Streptomycin-Dodecylphosphat-Salz [Beispiel 20]", "Gehalt an Streptomycin": "4,7 Gew.-%"}
{"substance": "Gentamicin-Octadodecylphosphonsäure-Salz [Beispiel 8]", "Gehalt an Gentamicin-Base": "17,7 Gew.-%"}
